Test system: db/db mice
Experiment: Weight, food intake, water intake, fasting blood glucose, urine output, HbA1c and blood pressure in db/db mice
Format: in vivo
Protocol: 6-week old mice were used. db/m mice were set as the non-diabetic control group (7 for each stage, n=28), and divided db/db mice into the diabetic group (7 for each stage, n=28) and DA1229 administration group (n=8). 0.3% (W/W, 300 mg/kg/day) of DA1229, a DPP-IV inhibitor, was mixed with feed and provided to the DA1229 administration group while only feed was provided to the diabetic group. Weight, food intake, water intake, fasting blood glucose, urine output, hemoglobin A1c value (HbA1c) and blood pressure (i.e. systolic blood pressure, SBP) of the non-diabetic control group (db/m control group) and the diabetic group (db/db) were measured at week 0, 4, 8 and 12 of administration; and that of the DA1229 administration group were measured at week 12. HbA1c was measured by using the DCA 2000+ (Bayer Healthcare, Wuppertal, Germany) Analyzer.

[1] = DA1229 0.3% W/W in feed (300 mg/kg/day), wk 12, mean ± SEM
[2] = DA1229 administered for 12 weeks

Structure (SMILES): CC(C)(C)OC[C@@H]1C(=O)NCCN1C(=O)C[C@H](N)Cc1cc(F)c(F)cc1F [DA1229, (R)-4-{(R)-3-amino-4-(2,4,5-trifluorophenyl)butanoyl}-3-(t-butoxymethyl)piperazin-2-one]
- Daily Food Intake [1]: 5.67 ± 0.08 g
- SBP [1]: 124 ± 11 mmHg
- Weight [1]: 57.2 ± 2.5 g
- food intake compared to the diabetic group [2]: no significant differences
- weight compared to the diabetic group [2]: no significant differences

— US10159667B2, “Composition containing a DPP-IV inhibitor for preventing or treating renal diseases” (DONG-A ST CO., LTD, priority 2013, dated 2018)
